The values that follow come from patent US20200087662.

Protein sequences, listed by entry. Tags and fused reporters are not part of them. Residues count along the entry.
UniProt P11940, 1-383: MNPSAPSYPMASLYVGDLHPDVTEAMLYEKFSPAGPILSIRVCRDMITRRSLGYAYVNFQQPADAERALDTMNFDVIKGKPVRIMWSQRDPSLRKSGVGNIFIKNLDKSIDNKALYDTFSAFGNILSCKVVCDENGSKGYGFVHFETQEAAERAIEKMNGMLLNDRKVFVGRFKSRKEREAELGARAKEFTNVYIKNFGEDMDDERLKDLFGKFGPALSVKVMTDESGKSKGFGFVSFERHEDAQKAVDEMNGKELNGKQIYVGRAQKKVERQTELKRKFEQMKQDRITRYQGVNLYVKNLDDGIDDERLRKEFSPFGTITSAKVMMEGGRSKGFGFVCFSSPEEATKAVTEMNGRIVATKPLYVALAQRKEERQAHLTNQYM
UniProt P11940, whole entry: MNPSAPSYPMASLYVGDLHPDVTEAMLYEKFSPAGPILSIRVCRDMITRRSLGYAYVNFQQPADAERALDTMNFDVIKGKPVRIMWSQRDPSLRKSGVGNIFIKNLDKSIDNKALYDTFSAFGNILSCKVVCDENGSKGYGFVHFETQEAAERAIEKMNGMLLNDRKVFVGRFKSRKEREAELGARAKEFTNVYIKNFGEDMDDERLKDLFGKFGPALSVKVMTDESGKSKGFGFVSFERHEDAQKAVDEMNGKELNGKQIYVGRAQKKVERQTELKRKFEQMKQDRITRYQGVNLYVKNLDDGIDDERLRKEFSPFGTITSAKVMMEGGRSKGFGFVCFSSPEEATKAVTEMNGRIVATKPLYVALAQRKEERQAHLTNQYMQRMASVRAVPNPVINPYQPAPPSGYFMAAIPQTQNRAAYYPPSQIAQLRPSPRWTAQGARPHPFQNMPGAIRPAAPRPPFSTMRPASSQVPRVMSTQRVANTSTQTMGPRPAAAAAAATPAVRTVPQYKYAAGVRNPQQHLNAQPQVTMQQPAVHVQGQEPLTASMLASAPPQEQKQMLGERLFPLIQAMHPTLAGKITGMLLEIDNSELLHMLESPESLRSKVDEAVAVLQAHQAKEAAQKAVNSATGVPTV

For some assays here: Negatives hold for the conditions tested. For some assays here: At least one result comes from cells or an extract, where the contact may be indirect. For some assays here: For at least one entry, the source does not settle the construct or the ends of the probe.

One data set addresses PABPC1 (UniProt P11940). In words: SELEX. Particulars: most enriched 10-mer after five rounds of SEQRS; 50 mM HEPES pH 7.4, 2 mM EDTA, 150 mM NaCl, 22 C; purified recombinant protein; protein details: immobilized on magnetic glutathione (GST) resin.
The target of data set [1] is PABP (PABPC1, endogenous) (Homo sapiens) (UniProt P11940). In words: EMSA. Particulars: 2'-OMe at all riboses, PS at the 5'-most and 3'-most linkages, protein in an extract, protein details: U2OS cytoplasmic/whole-cell lysate, label: Cy3 or 3' biotin. (A gel shift assay detects complexes by their altered migration in electrophoresis.)
For data set [2] the target is unchanged. In words: pull-down. The following applies: 2'-OMe at all riboses; PS at the 5'-most and 3'-most linkages; 3' biotin SPOT-ON, streptavidin beads, anti-PABP blot; diminished in PABP-depleted lysate; 2 mM MgCl2, 150 mM NaCl, 4 C; protein in an extract; protein details: U2OS cytoplasmic/whole-cell lysate; label: Cy3 or 3' biotin; variant of Unmodified Poly(A)12 RNA.

Another data set deals with PABP (PABPC1) (UniProt P11940). In words: activity in cells. The following applies: 2'-OMe at all riboses; PS at the 5'-most and 3'-most linkages; SUnSET in U2OS, 10 uM, 3 h; no significant effect; protein in cells; variant of Poly(A) SPOT-ON.

On to AAAAAAAAAA [SEQRS top 10-mer poly(A)], for which, in the data set with PABPC1, the selection result is listed as “selected”. With AAAAAAAAAAAA [Poly(A) SPOT-ON], the binding result is “binds” in data set [1] (single shifted band from U2OS lysate, greatly reduced after PAIP depletion of PABP (53%), yeast tRNA, 1 mM EDTA, on ice, variant of Unmodified Poly(A)12 RNA) and “binds” in data set [2]. Consider UAACAAAAUAAU [Scramble SPOT-ON], for which the binding result in data set [1] (no clear binding to any species in whole-cell extract, variant of Poly(A) SPOT-ON) was “no binding”. The functional effect entry in the data set with PABP (PABPC1) was “not active”.
